PubChem BioAssay AID743454, Peter MacCallum Cancer Centre | 2014

Screen: 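Search for knock-downs that restore vorinostat killing in resistant colon cancer cells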 (primary screen)
Cell system: human HCT116-VR colon cancer cells, selected for vorinostat resistance
Reagents: siRNA pool against human genes, 40 nM siRNA pool
Timing: vorinostat for 24 h, read-out about 72 h after transfection
Challenge: vorinostat at 2.5 µM final
Detection: 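Cell viability by CellTiter-Fluor and caspase 3/7 activity by luminescence, each scaled to mock wells per plate, duplicates averaged, then robust z-scored over all plates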
Reading the numbers: viability robust z-score: higher = more viable cells than screen typical; caspase robust z-score: higher = more caspase 3/7 activity than screen typical
Call rule: 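Hits are knock-downs in viability class RV1/RV2 or caspase class CA1/CA2, excluding ones that killed cells in the no-drug cell-count arm; hits then retested with single siRNAs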
Shown is a random part of about 18,000 reagents tested. 450 of them (2.5%) count as active. 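Single biological run; no consistent viability z cut-off exists, so the class columns, not z-scores, define the calls.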 Unmarked entries are inactive.

Gene | viability hit class | caspase hit class | viability robust z-score | caspase robust z-score
SPOCD1 | no change | no change | -0.42 | -0.18
ULK1 | no change | no change | 0.77 | -0.44
LTA | no change | no change | -0.75 | -0.56
NME4 | no change | no change | 1.72 | 0.04
CFAP44 | no change | no change | 1.51 | -0.08
CCNP | no change | no change | -0.77 | 0.62
TP53I3 | no change | no change | -1.63 | 0.28
PRR27 | no change | no change | 1.26 | 0.12
ATRAID | no change | no change | -0.76 | 0.1
STMN2 | no change | no change | 1.03 | -0.2
CD200 | no change | no change | -0.64 | 0.02
ATP6AP1 | no change | no change | -1.54 | -0.28
TMPRSS11A | no change | no change | -0.27 | -0.09
NPHP4 | no change | no change | -0.78 | -1.27
CNTD1 | no change | no change | -0.92 | -0.67
IRGQ | no change | no change | 0.72 | -0.68
PRAMEF8 | no change | no change | 0.78 | 1.31
SIDT1 | no change | no change | 0.46 | -0.46
COL27A1 | no change | no change | 0.51 | -0.62
MKLN1 | no change | no change | -0.24 | 0.03
SERPINA3 | no change | no change | 0.06 | 2.79
ACO1 | no change | no change | -1.09 | -0.47
FZD7 | no change | no change | 0.08 | 0.4
CYP2F1 | no change | no change | -0.64 | -0.52
PHYKPL | no change | no change | 0.17 | 0.8
DSN1 | no change | no change | 0.77 | 0.47
TDG | no change | no change | 1.09 | -0.7
WNT3A | no change | no change | 1.21 | 2.62
ACOT12 | no change | no change | -0.22 | -0.88
IL11 | no change | no change | -0.66 | 2.46
QKI | no change | no change | -0.85 | 1.44
KLK3 | no change | no change | -3.11 | 0.43
MYOC | no change | no change | 0.56 | -0.64

Continued, starting with the last 7 of the part before.
Gene | viability hit class | caspase hit class | viability robust z-score | caspase robust z-score
TDG | no change | no change | 1.09 | -0.7
WNT3A | no change | no change | 1.21 | 2.62
ACOT12 | no change | no change | -0.22 | -0.88
IL11 | no change | no change | -0.66 | 2.46
QKI | no change | no change | -0.85 | 1.44
KLK3 | no change | no change | -3.11 | 0.43
MYOC | no change | no change | 0.56 | -0.64
POLDIP2 | no change | no change | 0.71 | 0.36
KLHL17 | no change | no change | 0 | 1
HNRNPK | RV2 (reduced viability) (active) | no change | -3.04 | 3.7
CMIP | no change | no change | 0.48 | -0.97
PODNL1 | no change | no change | -1.6 | 2.49
S100A8 | no change | no change | -0.48 | 0.02
MFF | no change | no change | 0.23 | -0.4
ZGPAT | no change | no change | -1.69 | -0.52
ODAD1 | no change | no change | -0.14 | 0.06
EPOR | no change | no change | 0.6 | 0.57
KLK5 | no change | no change | -0.9 | 0.03
ZNF780B | no change | no change | -0.08 | -1.06
PZP | no change | no change | 0.05 | 3.05
FABP3 | no change | no change | -0.3 | -0.25
CYP20A1 | no change | no change | 0.64 | -1.27
ZMAT3 | no change | no change | -0.25 | -0.52
GAD2 | no change | no change | 0.64 | -0.72
ITFG2 | no change | no change | -0.84 | -0.61
TFAP4 | no change | no change | 0.3 | -1.09
RBM19 | no change | no change | -1.55 | -0.12
RAD23B | no change | no change | 0.12 | -0.79
PRSS22 | no change | no change | -1.07 | 1.3
PLXNA2 | no change | no change | 0.33 | 1.08
ALDOC | no change | no change | 0.33 | -1.24
